Test results reported in paper PMC4729829, “BAP1/ASXL1 recruitment and activation for H2A deubiquitination” (Nature Communications, 2016).
Results are given in words; binding and its absence hold for the method and conditions named.

Chains of the proteins cited; added tags and fusions are not shown. Residues count along the entry.
UniProt Q92560, residues 1-670: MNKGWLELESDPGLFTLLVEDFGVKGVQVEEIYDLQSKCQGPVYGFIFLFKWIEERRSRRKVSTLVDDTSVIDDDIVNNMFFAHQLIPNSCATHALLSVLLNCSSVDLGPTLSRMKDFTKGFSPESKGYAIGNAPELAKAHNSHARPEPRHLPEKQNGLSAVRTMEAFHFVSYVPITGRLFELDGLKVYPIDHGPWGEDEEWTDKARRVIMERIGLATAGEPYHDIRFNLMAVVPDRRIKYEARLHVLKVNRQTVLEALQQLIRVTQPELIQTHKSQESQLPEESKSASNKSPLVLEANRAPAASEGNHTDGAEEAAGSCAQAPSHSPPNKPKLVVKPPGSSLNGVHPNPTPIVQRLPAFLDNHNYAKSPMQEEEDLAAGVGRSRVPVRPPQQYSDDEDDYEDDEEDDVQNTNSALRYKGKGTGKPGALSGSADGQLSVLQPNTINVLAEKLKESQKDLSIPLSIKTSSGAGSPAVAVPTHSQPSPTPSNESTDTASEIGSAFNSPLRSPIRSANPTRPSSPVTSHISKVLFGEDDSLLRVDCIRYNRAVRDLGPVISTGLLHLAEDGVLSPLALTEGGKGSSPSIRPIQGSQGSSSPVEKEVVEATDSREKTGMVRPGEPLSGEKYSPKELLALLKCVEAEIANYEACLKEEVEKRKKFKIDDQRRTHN
UniProt Q8IXJ9, residues 238-390: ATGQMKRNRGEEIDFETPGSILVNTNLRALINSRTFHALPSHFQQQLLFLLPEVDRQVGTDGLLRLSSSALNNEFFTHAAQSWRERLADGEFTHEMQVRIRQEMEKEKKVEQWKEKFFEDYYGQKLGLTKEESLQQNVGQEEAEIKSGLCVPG

How the values were obtained:
[1] = target: BAP1 1-670 (disrupted ULD domain, lacks the predicted ASXL1^DEU-binding site) (human) (UniProt Q92560); assay: SEC; gel filtration of BAP1 1-670 with ASXL1^DEU (Supplementary Fig. 1h); both purified
[2] = target: BAP1 1-670 (disrupted ULD domain) (human) (UniProt Q92560); assay: SEC; S200 5/150 size exclusion chromatography column; fractions on SDS-PAGE; both purified
[3] = target: ASXL1 DEUBAD domain (aa 238-390) (human) (UniProt Q8IXJ9); assay: SEC-MALS; SEC-MALLS, miniDawn detector; Superdex S75 10/30 (ASXL1^DEU), Superose 6 10/30 (BAP1) or Superdex S200 10/30 (BAP1/ASXL1^DEU); 10 mM HEPES pH 7.5, 150 mM NaCl, 0.5 mM TCEP; 4 °C; both purified
[4] = target: ASXL1 DEUBAD domain (aa 238-390) (human) (UniProt Q8IXJ9); assay: SEC-MALS; miniDawn detector in line with Superdex S75 10/30 (ASXL1DEU), Superose 6 10/30 (BAP1) or Superdex S200 10/30 (BAP1/ASXL1DEU); 10 mM HEPES pH 7.5, 150 mM NaCl, 0.5 mM TCEP, 4 °C; molecular weights from the refractive index signal; both purified
[5] = target: BAP1 1-670 (disrupted ULD domain) (human) (UniProt Q92560); assay: condition: 30 μM ASXL1DEU titrated into 13 μM of BAP1 variant; ITC; VP-ITC at 25 °C; 25 mM HEPES pH 7.5, 150 mM NaCl, 10% glycerol, 0.5 mM TCEP; 30 μM ASXL1DEU (syringe) titrated into 13 μM BAP1 variant (cell), 10 or 5 μl injections; one-site binding model; both purified
[6] = target: BAP1 1-670 (disrupted ULD domain, lacks the predicted ASXL1^DEU-binding site) (human) (UniProt Q92560); assay: condition: 30 μM ASXL1^DEU titrated into 13 μM BAP1 variant; ITC; 30 μM ASXL1^DEU in the syringe titrated (10 or 5 μl injections) into 13 μM BAP1 variant in the cell; 25 °C; 25 mM HEPES pH 7.5, 150 mM NaCl, 10% glycerol, 0.5 mM TCEP; one-site binding model; both purified

binding [1]: no binding
binding [2]: no binding
binding [3]: no binding
binding [4]: no binding
binding [5]: no binding
binding [6]: no binding
Substance: ASXL1 DEUBAD domain (aa 238-390) (from UniProt Q8IXJ9 238-390) (domain or fragment)
